Measurements taken from patent publication US20220098290A1 (JUNTENDO EDUCATIONAL FOUNDATION, published 2022).
Results are given in words; binding and its absence hold for the method and conditions named. Some entries that bind do so weakly or less than the wild type.

Key:
[1] = target: Ins 5 type mutant CALR protein having a FLAG-tag inserted downstream of the signal sequence at the amino-terminal, cleavage type (human) (UniProt P27797); assay: immunoblot of culture supernatant of UT-7/TPO cells
[2] = target: Del 52 type mutant CALR protein having a FLAG-tag inserted downstream of the signal sequence at the amino-terminal, full-length type (human) (UniProt P27797); assay: as above
[3] = target: Ins 5 type mutant CALR protein having a FLAG-tag inserted downstream of the signal sequence at the amino-terminal, full-length type (human) (UniProt P27797); assay: as above
[4] = target: Del 52 type mutant CALR protein having a FLAG-tag inserted downstream of the signal sequence at the amino-terminal, cleavage type (human) (UniProt P27797); assay: as above
[5] = target: purified Del 52 type mutant CALR protein (human) (UniProt P27797); assay: ELISA, antigen coated on the plate, 0-800 ng/mL antibody
[6] = target: Del 52 type mutant CALR protein labeled with a FLAG-tag downstream of the signal sequence at the amino-terminal, on the surface of UT-7/TPO cells (human) (UniProt P27797); assay: flow cytometry on UT-7/TPO cells
[7] = target: Ins 5 type mutant CALR protein labeled with a FLAG-tag downstream of the signal sequence at the amino-terminal, on the surface of UT-7/TPO cells (human) (UniProt P27797); assay: flow cytometry on UT-7/TPO cells

Measured: binding

B1: clone B3 antibody (antibody, V domains shown)
VH: QVQLQQSGAELVKPGSSVKISCKASGYTFTRNFIHWIKQQPGNGLEWIGWIFPGDGDTEYNQKFNGKATLTADKSSSTAYMQLSSLTSEDSAVYFCARGNYNYEYFDYWGQGVMVTVSS
VL: DIQMTQSPASLSASLGETVSIECLASEDIYSYLAWYQQKPGKSPQLLIFAANRLQDGVPSRFSGSGSGTQFSLKISGMQPEDEGDYFCLQGSKFPYTFGPGTKLELN
notes: Rat monoclonal antibody purified from a hybridoma (WKY/Izm rat x mouse SP2 myeloma), detected with anti-rat IgG; also called rat clone B3 antibody
binds: [1] | [2] | [3] | [4] | [5] | [6] | [7]

B2: clone C6 antibody (antibody, V domains shown)
VH: QVQLQQSGAELVKPGSSVKISCKASGYTFTSYFVHWIKQQPGDGLEWIGWIYPGDGDTEYNHKFNGKSTLTADRSSSTAYMQLSSLTSEDSAVYFCARGNYYDGREVMDAWGQGASVTVSS
VL: DVVLTQTPPTLSATIGQSVSISCRSSQSLLDSDGETYLNWLLQRPGQSPQLLIYSVSNLESGVPNRFSGSGSETDFTLKISGMEAEDLGVYYCMQATHGPYTFGAGTKLELK
notes: Rat monoclonal antibody purified from a hybridoma, detected with anti-rat IgG; also called rat clone C6 antibody
binds: [1] | [2] | [3] | [4] | [5] | [6] | [7]

B3: clone G1 antibody (antibody, V domains shown)
VH: QVQLQQSGAELVKPGSSVKISCKASGYTFTSYFVHWIKQQPGDGLEWIGWIYPGDGDTEYNQKFNGKATLTADRSSSTAYMQLSSLTSEDSAVYFCARGNYYDGREVMDAWGQGASVTVSS
VL: DVVLTQTPPTLSATIGQSVSISCRSSQSLLDSDGETYLNWLLQRPGQCPQLLIYSVSNLESGVPNRFSGSGSETDFTLKISGVEAEDLGVYYCMQGTHGPYTFGAGTKLELK
notes: Rat monoclonal antibody purified from a hybridoma, detected with anti-rat IgG; also called rat clone G1 antibody
binds: [1] | [2] | [3] | [4] | [5] | [6] | [7]
